Experimental data: paper PMC5108325
Changes are numbered by the printed parent chain. These are yes or no findings as the source states them, for the method shown. In cells and extracts the contact can be indirect. A result given as binding can be weak or reduced; the word gives no strength. For some assays here: Where a sequence is shown, tags or fusion partners need not be part of it. Blank lines part the entries; values can stand above or below the substance they belong to.

Chains of the proteins cited; added tags and fusions are not shown. Lines headed by an entry give the natural chain unless they say otherwise; changes in a name come on top.
UniProt P23258: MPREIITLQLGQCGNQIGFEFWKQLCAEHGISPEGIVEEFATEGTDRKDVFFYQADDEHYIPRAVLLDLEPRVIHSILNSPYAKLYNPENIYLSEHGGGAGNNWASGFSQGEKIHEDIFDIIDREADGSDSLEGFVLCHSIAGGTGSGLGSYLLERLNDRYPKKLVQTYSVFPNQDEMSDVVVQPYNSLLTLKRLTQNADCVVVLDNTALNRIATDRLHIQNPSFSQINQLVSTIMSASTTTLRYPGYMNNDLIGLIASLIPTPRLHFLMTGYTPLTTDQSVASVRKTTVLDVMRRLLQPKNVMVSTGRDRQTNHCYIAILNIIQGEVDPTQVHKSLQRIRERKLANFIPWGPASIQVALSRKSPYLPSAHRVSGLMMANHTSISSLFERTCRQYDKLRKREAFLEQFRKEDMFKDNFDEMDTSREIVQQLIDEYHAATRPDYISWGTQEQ

What was measured:
[1] = target: T1, tandem affinity purification (TAP)-tagged BEX4 (HeLa) (human) (UniProt Q9NWD9); experiment: pull-down; lysates of HeLa cells expressing TAP-BEX4 or TAP alone incubated with streptavidin sepharose beads; bound proteins immunoblotted
T1 sequence: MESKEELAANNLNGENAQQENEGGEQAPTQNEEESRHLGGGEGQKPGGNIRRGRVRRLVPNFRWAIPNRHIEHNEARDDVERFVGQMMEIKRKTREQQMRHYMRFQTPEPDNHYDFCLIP

[2] = target: T2, GST-BEX4 middle (M; 31~90 a.a) (human) (UniProt Q9NWD9); experiment: pull-down; U2OS cell extracts incubated with beads bound to GST, GST-BEX4 (FL) or GST-BEX4 N, M, C; bound proteins immunoblotted; only the target purified
T2 sequence: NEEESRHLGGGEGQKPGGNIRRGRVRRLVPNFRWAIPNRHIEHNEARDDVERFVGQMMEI

[3] = target: T3, GST-BEX4 C-terminal (C; 61 ~120 a.a) (human) (UniProt Q9NWD9); experiment: as above
T3 sequence: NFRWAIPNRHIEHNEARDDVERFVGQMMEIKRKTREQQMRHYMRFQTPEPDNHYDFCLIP

GST-SIRT2 wild type (WT) = target: T4, GST-SIRT2 wild type (WT) (UniProt Q8IXJ6); experiment: pull-down; purified GST, GST-SIRT2 (WT) or GST-SIRT2 H187Y incubated with U2OS cell extracts and pulled down with beads; bound proteins immunoblotted; only the target purified
T4 sequence: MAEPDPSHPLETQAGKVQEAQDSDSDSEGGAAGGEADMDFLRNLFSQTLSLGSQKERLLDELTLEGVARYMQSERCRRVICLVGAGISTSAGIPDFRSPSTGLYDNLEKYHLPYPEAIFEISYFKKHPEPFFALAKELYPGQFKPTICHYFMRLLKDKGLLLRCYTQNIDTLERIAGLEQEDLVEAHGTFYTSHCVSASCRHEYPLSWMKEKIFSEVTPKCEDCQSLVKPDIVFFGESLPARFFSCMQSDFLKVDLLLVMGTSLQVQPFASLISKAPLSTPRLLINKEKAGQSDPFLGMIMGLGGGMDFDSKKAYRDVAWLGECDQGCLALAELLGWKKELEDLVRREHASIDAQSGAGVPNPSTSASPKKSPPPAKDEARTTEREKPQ

GST-SIRT2 H187Y mutant = target: T5, GST-SIRT2 H187Y mutant (UniProt Q8IXJ6); experiment: as above
T5 sequence: T4 sequence with H187Y

[4] = target: T6, BEX4 (endogenous, HeLa) (human (endogenous in HeLa)) (UniProt Q9NWD9); experiment: co-IP; HeLa cell lysates immunoprecipitated with anti-BEX4 antibody and immunoblotted
T6 sequence: T1 sequence

binding [1]: binds weakly
Substance: β-tubulin (endogenous, HeLa) (human (endogenous in HeLa))

binding [1]: binds weakly
Substance: γ-tubulin (endogenous, HeLa) (from UniProt P23258)

binding [2]: binds weakly
binding [3]: binds
binding (GST-SIRT2 wild type (WT)): binds
binding (GST-SIRT2 H187Y mutant): binds
Substance: α-tubulin (endogenous, U2OS) (human (endogenous in U2OS))

binding [4]: binds
binding [1]: binds
Substance: α-tubulin (endogenous, HeLa) (human (endogenous in HeLa))
